# Assay results as given in the supplement of paper PMC12067093, “Discovery and optimisation of a covalent ligand for TRIM25 and its application to targeted protein ubiquitination” (Chemical Science, 2025).
# Chains of the proteins cited; added tags and fusions are not shown. Lines headed by an entry give the natural chain unless they say otherwise; changes in a name come on top.
# UniProt Q9H2U2: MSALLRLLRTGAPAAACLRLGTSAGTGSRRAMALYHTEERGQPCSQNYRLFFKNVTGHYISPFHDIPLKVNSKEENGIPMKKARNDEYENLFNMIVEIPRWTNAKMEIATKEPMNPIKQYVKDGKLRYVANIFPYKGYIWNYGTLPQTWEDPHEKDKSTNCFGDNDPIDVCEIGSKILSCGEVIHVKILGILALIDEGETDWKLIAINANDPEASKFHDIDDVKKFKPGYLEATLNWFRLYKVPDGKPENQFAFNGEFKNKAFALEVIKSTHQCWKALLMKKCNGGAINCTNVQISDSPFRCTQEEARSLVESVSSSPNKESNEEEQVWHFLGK
# UniProt Q7Z3K3: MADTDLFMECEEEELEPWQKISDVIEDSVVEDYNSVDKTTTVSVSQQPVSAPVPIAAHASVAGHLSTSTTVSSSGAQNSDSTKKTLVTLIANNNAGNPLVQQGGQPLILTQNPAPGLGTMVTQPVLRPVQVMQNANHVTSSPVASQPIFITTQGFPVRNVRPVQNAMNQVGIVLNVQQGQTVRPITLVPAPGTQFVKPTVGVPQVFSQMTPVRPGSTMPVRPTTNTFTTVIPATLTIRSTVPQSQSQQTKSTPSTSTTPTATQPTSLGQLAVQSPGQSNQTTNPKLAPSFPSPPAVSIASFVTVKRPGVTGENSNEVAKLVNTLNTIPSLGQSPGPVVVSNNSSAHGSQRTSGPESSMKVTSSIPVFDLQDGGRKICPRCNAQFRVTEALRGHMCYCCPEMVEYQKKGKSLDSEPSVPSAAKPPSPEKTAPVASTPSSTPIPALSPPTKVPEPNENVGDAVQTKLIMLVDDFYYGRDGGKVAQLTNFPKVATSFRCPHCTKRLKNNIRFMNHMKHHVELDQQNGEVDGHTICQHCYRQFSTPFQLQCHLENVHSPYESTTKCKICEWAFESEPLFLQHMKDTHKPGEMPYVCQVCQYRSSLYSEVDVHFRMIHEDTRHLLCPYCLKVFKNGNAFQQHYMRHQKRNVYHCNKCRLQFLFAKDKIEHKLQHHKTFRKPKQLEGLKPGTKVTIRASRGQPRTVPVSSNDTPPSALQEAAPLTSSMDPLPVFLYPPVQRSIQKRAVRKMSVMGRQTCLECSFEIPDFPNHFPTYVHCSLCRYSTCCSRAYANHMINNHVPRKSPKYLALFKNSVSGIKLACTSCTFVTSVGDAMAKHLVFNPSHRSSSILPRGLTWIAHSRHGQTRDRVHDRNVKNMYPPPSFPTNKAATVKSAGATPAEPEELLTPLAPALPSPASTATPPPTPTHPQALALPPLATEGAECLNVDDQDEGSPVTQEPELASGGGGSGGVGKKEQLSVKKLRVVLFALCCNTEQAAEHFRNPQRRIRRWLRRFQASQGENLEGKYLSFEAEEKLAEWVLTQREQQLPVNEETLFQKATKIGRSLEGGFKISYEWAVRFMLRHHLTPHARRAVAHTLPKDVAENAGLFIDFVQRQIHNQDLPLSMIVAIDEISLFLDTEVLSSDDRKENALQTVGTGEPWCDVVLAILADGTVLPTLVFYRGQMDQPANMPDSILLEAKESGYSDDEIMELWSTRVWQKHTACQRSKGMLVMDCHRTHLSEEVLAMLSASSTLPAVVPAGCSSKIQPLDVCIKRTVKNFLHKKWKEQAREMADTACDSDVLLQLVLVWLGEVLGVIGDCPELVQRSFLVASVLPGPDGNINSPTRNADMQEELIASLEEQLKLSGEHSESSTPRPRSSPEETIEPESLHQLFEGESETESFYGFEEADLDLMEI
# UniProt Q15054: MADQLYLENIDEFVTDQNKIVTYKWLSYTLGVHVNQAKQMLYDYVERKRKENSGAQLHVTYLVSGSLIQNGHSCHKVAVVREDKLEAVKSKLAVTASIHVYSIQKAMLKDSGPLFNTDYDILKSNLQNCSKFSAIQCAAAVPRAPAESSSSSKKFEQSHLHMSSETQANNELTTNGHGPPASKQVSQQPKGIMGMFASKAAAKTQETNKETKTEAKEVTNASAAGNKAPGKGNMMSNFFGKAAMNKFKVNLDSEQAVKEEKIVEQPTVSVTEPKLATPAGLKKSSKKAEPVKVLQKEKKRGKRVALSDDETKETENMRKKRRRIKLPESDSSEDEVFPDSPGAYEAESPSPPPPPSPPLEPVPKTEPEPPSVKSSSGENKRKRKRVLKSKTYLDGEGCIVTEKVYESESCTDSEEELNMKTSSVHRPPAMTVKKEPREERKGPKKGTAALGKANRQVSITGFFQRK
# UniProt Q9Y535: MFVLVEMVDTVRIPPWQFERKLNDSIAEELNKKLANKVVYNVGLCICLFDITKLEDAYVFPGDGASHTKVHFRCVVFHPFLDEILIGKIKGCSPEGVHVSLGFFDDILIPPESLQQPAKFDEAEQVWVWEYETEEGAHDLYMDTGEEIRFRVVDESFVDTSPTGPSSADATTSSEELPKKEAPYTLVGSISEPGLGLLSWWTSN
# UniProt Q15181: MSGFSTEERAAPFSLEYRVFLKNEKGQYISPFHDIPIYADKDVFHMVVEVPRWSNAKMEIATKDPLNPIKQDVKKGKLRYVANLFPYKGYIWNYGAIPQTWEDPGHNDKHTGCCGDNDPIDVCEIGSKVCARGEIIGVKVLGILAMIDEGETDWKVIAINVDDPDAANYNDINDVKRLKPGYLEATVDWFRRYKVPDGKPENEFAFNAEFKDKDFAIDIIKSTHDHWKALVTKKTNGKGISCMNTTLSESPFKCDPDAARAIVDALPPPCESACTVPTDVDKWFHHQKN
# UniProt Q9P215: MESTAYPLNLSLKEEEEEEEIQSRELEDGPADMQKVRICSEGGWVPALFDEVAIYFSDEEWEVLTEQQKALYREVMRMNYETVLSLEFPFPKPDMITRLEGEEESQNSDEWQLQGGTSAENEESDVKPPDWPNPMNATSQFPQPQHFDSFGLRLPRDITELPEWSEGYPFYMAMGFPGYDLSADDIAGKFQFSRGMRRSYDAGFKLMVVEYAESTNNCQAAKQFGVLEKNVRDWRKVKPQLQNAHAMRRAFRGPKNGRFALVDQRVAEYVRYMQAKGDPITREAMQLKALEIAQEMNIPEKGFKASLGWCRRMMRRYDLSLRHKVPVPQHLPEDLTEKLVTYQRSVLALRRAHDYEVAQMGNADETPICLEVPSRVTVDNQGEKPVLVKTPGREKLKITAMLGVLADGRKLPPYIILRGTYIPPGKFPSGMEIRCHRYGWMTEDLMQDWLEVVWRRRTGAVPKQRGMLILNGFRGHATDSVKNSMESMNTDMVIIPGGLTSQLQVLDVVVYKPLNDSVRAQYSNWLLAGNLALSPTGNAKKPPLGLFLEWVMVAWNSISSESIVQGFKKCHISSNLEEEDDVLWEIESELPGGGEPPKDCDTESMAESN
# UniProt Q96CD2: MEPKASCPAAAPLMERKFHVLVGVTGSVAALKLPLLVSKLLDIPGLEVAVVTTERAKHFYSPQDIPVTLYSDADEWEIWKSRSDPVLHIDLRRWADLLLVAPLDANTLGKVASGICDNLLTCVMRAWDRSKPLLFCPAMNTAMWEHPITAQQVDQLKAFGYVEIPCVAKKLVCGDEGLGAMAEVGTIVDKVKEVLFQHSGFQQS
# UniProt A5A3E0, whole entry, looked up: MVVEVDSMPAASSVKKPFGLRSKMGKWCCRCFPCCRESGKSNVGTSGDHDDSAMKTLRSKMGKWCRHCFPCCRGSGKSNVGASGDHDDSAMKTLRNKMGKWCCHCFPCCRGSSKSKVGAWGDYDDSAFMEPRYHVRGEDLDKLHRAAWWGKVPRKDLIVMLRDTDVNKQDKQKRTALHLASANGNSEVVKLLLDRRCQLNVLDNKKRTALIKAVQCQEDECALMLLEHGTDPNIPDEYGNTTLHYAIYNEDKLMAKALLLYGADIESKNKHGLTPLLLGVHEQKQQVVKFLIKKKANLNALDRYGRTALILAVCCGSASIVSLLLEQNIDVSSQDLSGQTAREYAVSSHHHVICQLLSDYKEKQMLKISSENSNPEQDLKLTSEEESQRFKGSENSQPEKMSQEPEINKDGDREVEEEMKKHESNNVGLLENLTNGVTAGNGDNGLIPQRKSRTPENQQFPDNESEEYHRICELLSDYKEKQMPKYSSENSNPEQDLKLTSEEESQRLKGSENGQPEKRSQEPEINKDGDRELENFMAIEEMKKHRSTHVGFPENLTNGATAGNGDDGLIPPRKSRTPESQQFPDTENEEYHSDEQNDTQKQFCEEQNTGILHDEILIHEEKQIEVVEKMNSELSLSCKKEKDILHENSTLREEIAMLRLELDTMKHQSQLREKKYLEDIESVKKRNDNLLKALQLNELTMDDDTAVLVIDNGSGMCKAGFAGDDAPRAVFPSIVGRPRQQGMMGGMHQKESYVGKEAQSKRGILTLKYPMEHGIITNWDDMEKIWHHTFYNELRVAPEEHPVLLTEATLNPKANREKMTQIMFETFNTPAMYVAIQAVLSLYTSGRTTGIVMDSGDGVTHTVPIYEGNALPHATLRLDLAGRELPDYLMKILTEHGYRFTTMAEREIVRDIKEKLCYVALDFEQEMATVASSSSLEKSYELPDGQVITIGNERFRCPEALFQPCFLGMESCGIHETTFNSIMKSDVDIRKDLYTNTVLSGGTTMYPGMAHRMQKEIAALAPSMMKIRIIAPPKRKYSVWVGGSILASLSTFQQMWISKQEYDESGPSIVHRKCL
# UniProt P54098: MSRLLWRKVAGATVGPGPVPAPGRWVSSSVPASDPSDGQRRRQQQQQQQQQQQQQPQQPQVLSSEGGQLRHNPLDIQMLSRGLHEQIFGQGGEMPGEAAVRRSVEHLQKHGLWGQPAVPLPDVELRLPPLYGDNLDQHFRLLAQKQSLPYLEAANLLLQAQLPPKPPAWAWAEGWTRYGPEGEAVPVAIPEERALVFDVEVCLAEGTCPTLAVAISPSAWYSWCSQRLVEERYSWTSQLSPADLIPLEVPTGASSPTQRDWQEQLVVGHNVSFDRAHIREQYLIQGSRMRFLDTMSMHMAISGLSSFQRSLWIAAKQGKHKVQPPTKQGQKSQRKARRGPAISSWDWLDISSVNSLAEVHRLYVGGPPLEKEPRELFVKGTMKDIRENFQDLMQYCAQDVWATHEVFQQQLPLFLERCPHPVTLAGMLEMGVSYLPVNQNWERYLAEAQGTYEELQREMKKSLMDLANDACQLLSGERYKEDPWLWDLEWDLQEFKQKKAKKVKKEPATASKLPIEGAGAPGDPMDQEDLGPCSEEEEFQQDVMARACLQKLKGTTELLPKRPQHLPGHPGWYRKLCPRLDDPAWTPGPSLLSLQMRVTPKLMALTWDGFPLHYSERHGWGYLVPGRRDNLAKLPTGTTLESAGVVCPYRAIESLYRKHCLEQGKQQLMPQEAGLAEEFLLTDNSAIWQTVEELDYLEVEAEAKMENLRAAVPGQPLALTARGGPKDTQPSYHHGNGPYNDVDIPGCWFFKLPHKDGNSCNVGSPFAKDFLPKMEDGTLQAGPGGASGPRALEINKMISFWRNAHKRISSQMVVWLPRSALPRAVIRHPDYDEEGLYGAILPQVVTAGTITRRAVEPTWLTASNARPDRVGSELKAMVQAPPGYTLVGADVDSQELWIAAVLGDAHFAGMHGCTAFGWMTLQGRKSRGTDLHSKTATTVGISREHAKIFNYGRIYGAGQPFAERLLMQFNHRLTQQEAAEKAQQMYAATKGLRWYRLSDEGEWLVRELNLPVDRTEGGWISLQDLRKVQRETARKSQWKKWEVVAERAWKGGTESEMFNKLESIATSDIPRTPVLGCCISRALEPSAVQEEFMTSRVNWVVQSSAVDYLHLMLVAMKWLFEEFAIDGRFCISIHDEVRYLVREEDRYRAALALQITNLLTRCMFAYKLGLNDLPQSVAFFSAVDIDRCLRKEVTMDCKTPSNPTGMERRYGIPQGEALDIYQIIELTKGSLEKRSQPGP
# UniProt P30405: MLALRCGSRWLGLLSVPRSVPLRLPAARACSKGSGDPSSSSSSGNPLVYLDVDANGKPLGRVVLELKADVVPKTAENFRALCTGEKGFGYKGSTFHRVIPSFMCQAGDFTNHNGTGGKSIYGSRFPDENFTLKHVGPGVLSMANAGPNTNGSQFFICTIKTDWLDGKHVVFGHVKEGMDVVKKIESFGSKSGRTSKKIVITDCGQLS
# UniProt Q9BY77: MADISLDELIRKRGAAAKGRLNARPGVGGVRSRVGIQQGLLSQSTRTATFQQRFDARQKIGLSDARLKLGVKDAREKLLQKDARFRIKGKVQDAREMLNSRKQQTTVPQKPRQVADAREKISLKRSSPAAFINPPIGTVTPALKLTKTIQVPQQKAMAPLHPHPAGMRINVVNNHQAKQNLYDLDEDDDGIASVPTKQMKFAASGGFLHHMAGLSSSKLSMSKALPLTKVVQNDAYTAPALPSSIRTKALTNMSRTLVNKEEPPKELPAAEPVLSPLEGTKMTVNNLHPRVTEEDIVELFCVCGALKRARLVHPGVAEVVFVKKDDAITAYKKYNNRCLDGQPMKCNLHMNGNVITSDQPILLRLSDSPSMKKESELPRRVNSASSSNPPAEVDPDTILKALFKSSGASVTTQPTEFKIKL
# The other results are listed elsewhere or left out.
# Compound: Cc1cc(ccc1-c1ccccc1)C(=O)N1CCCN(CC1)C(=O)CCl [compound 10]
# Test: probe-labelled cysteine peptide fold change vs DMSO (competition) (log2 fold change); higher = less target engagement (more negative = stronger competition)
# Conditions: 10 µM; THP-1; incubation time: 4 h
# 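Note: competitive profiling in live THP-1 cells: cysteine peptides tagged with an iodoacetamide desthiobiotin (IA-DTB) probe, intensity after compound treatment relative to DMSO-treated cells.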
row,Target,probe-labelled cysteine peptide fold change
1,PPA2_Q9H2U2_161_DKSTNCFGDNDPIDVCEIGSK (UniProt Q9H2U2),-0.0888
2,POLD2_P49005_91_CCVVGTLFK (UniProt P49005),-0.0879
3,POLR2K_P53803_19+22_QQPMIYICGECHTENEIK (UniProt P53803),-0.0758
4,POP1_Q99575_666_SPNVPGDFPDCPAGMLFAEEQAK (UniProt Q99575),0.035
5,POLR2A_P24928_1245_INAGFGDDLNCIFNDDNAEK (UniProt P24928),-0.0487
6,POGZ_Q7Z3K3_547_QFSTPFQLQCHLENVHSPYESTTK (UniProt Q7Z3K3),0.115
7,POLD3_Q15054_398_TYLDGEGCIVTEK (UniProt Q15054),-0.0882
8,POLR2A_P24928_981_VVLPCNLLR (UniProt P24928),-0.423
9,POLRMT_O00411_705_TVEGATQHQELLETCPPTALHGALDALTQLGNCAWR (UniProt O00411),0.0372
10,POLR3H_Q9Y535_74_CVVFHPFLDEILIGK (UniProt Q9Y535),0.244
11,PPA1_Q15181_274_AIVDALPPPCESACTVPTDVDK (UniProt Q15181),-0.0652
12,POLD3_Q15054_129_SNLQNCSK (UniProt Q15054),-0.199
13,POLR3B_Q9NW08_145_SSNCVLTGK (UniProt Q9NW08),-0.0113
14,POLR2I_P36954_119_LYYVCTAPHCGHR (UniProt P36954),-0.26
15,POGK_Q9P215_369_RAHDYEVAQMGNADETPICLEVPSR (UniProt Q9P215),-0.235
16,POLR2A_P24928_451_HMCDGDIVIFNR (UniProt P24928),-0.0734
17,PPCDC_Q96CD2_116_VASGICDNLLTCVMR (UniProt Q96CD2),-0.0267
18,PPIG_Q13427_310_ECNPPNSQPASYQR (UniProt Q13427),-0.0237
19,POTEF_A5A3E0_917_LCYVALDFEQEMATVASSSSLEK (UniProt A5A3E0),0.126
20,PPFIBP1_Q86W92_926_QEDGEEYVCPMELGQASGSASK (UniProt Q86W92),-0.214
21,POLQ_O75417_2411_ENDAACYIDSFK (UniProt O75417),-0.0783

# Same assay, conditions: 50 µM; THP-1; incubation time: 4 h
row,Target,probe-labelled cysteine peptide fold change
1,POGZ_Q7Z3K3_1219_HTACQR (UniProt Q7Z3K3),-0.198
2,POLR3A_O14802_742_LQQQPGCTAEETLEALILK (UniProt O14802),-0.0338
3,POR_P16435_629_LIEGGAHIYVCGDAR (UniProt P16435),0.19
4,PPIA_P62937_52_GFGYKGSCFHR (UniProt P62937),0.0104
5,POLR1A_O95602_914_GSTVNTMQISCLLGQIELEGR (UniProt O95602),0.147
6,POLG_P54098_760_DGNSCNVGSPFAK (UniProt P54098),-0.503
7,PPIF_P30405_203_KIVITDCGQLS (UniProt P30405),-0.218
8,PPA1_Q15181_114_HTGCCGDNDPIDVCEIGSK (UniProt Q15181),0.181
9,POLDIP3_Q9BY77_301_VTEEDIVELFCVCGALK (UniProt Q9BY77),-0.0165
10,PPID_Q08752_282_LQPIALSCVLNIGACK (UniProt Q08752),0.183
11,PPIF_P30405_104_VIPSFMCQAGDFTNHNGTGGK (UniProt P30405),-0.00273
12,POLDIP3_Q9BY77_301_VTEEDIVELFCVCGALKR (UniProt Q9BY77),-0.485
13,POLD3_Q15054_137_FSAIQCAAAVPR (UniProt Q15054),0.016
14,POLR2A_P24928_233_ISDEECFVLGMEPR (UniProt P24928),0.0416
15,POLR2B_P30876_1137_THTYECR (UniProt P30876),0.00243
16,POLG_P54098_647_LPTGTTLESAGVVCPYR (UniProt P54098),-0.992
17,PPA2_Q9H2U2_161_DKSTNCFGDNDPIDVCEIGSK (UniProt Q9H2U2),-0.0943
18,POLD2_P49005_91_CCVVGTLFK (UniProt P49005),-0.0586
19,POLR2K_P53803_19+22_QQPMIYICGECHTENEIK (UniProt P53803),-0.224

row,Target,probe-labelled cysteine peptide fold change
1,POP1_Q99575_666_SPNVPGDFPDCPAGMLFAEEQAK (UniProt Q99575),-0.0925
2,POLR2A_P24928_1245_INAGFGDDLNCIFNDDNAEK (UniProt P24928),-0.0948
3,POGZ_Q7Z3K3_547_QFSTPFQLQCHLENVHSPYESTTK (UniProt Q7Z3K3),-0.262
4,POLD3_Q15054_398_TYLDGEGCIVTEK (UniProt Q15054),-0.0456
5,POLR2A_P24928_981_VVLPCNLLR (UniProt P24928),-0.259
6,POLRMT_O00411_705_TVEGATQHQELLETCPPTALHGALDALTQLGNCAWR (UniProt O00411),-0.166
7,POLR3H_Q9Y535_74_CVVFHPFLDEILIGK (UniProt Q9Y535),-0.183
8,PPA1_Q15181_274_AIVDALPPPCESACTVPTDVDK (UniProt Q15181),-0.0405
9,POLD3_Q15054_129_SNLQNCSK (UniProt Q15054),-0.204
10,POLR3B_Q9NW08_145_SSNCVLTGK (UniProt Q9NW08),-0.139
11,POLR2I_P36954_119_LYYVCTAPHCGHR (UniProt P36954),-0.215
12,POGK_Q9P215_369_RAHDYEVAQMGNADETPICLEVPSR (UniProt Q9P215),-0.172
13,POLR2A_P24928_451_HMCDGDIVIFNR (UniProt P24928),-0.107
14,PPCDC_Q96CD2_116_VASGICDNLLTCVMR (UniProt Q96CD2),-0.191
15,PPIG_Q13427_310_ECNPPNSQPASYQR (UniProt Q13427),-0.0502
16,POTEF_A5A3E0_917_LCYVALDFEQEMATVASSSSLEK (UniProt A5A3E0),-0.0637
17,PPFIBP1_Q86W92_926_QEDGEEYVCPMELGQASGSASK (UniProt Q86W92),-0.371
18,POLQ_O75417_2411_ENDAACYIDSFK (UniProt O75417),-0.0606
